Reference: paper PMC8213676, “OsJAZ11 regulates phosphate starvation responses in rice”
No constants are given. Whether binding was seen depends on the method and setting. Some binding calls cover weakened binding; strength is not graded here.

By UniProt entry, the sequences of proteins in these tests, tags left out.
UniProt Q336P5: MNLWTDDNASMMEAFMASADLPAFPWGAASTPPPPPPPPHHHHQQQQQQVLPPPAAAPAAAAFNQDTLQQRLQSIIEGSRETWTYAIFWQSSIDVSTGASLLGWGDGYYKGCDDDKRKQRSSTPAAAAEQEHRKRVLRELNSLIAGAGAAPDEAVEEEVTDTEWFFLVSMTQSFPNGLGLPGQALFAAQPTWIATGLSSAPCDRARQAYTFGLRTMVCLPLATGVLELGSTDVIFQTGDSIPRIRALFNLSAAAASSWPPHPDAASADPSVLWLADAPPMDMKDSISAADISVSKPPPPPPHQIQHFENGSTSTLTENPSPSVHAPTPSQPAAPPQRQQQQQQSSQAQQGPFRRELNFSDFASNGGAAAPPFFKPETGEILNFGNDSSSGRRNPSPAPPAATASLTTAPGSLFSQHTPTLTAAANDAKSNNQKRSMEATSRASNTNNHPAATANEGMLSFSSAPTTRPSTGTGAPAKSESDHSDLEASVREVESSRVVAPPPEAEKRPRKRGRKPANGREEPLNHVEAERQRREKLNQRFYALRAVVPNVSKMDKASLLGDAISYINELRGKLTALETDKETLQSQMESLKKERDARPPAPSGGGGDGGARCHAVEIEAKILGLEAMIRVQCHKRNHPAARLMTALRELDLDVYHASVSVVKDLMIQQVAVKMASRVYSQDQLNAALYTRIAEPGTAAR

Biological target: T1, OsSPX3 (pBD-OsSPX3) (rice (Oryza sativa)) (UniProt Q7XEY9)
T1 sequence: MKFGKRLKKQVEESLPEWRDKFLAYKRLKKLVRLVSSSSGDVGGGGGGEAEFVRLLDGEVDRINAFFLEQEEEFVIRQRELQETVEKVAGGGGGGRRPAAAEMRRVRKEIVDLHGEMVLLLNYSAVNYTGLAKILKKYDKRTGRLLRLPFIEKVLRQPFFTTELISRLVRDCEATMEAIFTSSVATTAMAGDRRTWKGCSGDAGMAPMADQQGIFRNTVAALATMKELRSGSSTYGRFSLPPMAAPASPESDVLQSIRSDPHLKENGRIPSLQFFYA
Experiment: two-hybrid; Matchmaker Gold system, yeast strain Y2H Gold; bait in pGBKT7 (BD), prey in pGADT7 (AD); spotted on TDO, QDO and QDO with X-alpha-gal and Aureobasidin A; 30 °C, 3-4 days

OsMYC2 (pAD-OsMYC2) (from UniProt Q336P5 1-699)
binding: binds
